The values that follow come from the supplement of paper PMC6411743.

Protein sequences, listed by entry. Tags and fused reporters are not part of them. Lines headed by an entry give the natural chain unless they say otherwise; changes in a name come on top.
UniProt Q9NVR0: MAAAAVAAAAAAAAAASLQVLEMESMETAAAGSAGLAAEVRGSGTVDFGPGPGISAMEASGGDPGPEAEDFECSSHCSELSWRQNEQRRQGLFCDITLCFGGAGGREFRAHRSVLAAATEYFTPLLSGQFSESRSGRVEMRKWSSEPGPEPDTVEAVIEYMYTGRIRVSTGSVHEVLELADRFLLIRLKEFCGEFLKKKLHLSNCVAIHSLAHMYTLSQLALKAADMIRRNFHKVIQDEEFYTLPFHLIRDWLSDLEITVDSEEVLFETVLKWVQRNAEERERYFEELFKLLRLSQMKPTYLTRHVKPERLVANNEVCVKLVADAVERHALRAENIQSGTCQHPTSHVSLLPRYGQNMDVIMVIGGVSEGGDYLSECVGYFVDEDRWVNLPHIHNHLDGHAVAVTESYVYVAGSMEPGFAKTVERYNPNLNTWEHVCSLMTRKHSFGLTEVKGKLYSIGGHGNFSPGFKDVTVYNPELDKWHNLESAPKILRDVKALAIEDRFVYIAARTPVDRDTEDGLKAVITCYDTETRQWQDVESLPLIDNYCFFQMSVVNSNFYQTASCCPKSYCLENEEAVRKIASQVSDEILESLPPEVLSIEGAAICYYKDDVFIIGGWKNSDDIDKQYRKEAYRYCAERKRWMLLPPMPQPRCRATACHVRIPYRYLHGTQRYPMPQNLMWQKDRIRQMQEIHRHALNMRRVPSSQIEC
UniProt Q9NPA3, whole entry: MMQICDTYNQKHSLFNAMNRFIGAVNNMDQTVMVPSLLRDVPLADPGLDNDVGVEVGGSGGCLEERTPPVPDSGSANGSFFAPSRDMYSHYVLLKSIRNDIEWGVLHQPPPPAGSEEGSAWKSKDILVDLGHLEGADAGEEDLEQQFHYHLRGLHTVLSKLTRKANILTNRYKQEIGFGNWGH
UniProt Q9NY61: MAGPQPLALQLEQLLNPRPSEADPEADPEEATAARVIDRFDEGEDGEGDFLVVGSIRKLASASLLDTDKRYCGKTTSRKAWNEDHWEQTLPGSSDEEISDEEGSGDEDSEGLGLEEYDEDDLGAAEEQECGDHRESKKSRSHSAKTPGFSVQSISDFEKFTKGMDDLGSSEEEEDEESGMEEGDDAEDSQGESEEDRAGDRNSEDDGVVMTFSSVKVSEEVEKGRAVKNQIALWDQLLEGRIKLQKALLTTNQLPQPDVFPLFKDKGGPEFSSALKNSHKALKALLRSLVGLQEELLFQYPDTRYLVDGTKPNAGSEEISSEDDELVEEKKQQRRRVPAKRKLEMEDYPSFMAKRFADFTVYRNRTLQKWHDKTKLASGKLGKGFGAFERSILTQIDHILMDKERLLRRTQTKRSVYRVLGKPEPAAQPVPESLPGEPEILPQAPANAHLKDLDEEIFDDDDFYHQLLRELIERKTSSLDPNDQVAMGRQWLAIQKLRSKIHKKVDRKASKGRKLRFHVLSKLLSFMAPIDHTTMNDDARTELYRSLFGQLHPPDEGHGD
UniProt Q9P0U4, whole entry: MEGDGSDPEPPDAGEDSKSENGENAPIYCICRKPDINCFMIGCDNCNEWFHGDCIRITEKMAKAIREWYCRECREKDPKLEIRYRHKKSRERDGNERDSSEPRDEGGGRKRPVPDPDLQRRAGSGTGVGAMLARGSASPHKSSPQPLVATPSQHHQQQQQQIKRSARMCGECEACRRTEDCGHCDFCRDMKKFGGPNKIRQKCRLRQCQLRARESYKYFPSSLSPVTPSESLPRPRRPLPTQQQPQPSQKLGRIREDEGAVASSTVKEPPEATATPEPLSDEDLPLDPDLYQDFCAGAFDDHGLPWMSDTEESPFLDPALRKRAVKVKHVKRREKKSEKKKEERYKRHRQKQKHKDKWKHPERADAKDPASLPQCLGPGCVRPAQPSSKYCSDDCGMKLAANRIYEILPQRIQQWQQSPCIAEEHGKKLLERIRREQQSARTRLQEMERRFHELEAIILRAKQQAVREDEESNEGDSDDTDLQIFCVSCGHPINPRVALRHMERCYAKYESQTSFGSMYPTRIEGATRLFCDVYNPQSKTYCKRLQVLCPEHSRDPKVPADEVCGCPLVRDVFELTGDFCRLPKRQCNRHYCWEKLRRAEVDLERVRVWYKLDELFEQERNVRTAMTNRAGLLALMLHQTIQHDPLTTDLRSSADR
UniProt Q9NRW7: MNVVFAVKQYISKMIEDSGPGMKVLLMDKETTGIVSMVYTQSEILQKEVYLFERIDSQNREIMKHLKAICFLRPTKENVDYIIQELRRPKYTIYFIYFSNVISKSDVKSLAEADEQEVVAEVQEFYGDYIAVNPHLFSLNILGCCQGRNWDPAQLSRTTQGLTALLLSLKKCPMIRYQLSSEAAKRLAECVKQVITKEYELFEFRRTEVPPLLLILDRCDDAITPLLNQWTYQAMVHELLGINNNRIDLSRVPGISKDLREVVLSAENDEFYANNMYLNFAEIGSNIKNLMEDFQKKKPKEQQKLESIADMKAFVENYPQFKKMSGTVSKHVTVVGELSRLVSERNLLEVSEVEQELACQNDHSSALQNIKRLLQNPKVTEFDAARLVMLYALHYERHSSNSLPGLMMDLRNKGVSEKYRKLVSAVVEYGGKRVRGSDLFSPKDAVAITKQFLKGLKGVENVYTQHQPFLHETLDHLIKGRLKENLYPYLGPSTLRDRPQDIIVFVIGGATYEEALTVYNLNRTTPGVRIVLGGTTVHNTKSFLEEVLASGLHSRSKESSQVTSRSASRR
UniProt Q9NVG8: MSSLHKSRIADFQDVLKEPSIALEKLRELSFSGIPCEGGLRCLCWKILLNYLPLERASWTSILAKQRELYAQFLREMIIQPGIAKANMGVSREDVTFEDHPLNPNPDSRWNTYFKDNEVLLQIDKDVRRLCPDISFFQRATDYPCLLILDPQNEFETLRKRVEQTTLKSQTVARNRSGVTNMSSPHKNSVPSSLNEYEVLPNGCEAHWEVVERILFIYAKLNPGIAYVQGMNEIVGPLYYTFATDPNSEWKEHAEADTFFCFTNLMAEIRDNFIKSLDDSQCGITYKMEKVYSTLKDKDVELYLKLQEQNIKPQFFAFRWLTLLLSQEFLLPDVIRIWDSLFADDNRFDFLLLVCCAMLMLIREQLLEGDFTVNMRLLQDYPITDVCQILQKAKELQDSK
UniProt Q9NZ43: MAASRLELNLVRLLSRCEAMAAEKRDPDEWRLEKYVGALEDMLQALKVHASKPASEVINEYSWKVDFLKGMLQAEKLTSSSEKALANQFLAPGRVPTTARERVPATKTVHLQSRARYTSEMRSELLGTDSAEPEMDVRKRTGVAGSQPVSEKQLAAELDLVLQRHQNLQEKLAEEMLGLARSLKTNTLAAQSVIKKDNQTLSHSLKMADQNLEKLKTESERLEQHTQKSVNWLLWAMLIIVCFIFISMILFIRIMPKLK
UniProt Q9NUP9: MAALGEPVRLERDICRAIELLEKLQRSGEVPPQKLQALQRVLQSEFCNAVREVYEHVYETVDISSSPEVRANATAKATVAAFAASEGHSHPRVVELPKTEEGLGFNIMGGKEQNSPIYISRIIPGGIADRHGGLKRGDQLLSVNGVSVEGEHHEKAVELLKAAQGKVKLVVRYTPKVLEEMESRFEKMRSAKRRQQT
UniProt Q9P031: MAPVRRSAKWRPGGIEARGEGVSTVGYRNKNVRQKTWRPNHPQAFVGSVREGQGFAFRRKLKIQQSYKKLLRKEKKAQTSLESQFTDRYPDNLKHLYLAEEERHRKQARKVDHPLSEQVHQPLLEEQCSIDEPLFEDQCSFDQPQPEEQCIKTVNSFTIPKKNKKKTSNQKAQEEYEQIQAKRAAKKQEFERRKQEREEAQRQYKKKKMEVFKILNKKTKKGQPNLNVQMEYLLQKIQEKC
UniProt Q9NPA8: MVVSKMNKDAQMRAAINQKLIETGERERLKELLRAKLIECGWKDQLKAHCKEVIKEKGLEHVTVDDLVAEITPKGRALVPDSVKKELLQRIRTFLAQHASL
UniProt Q9NWK9: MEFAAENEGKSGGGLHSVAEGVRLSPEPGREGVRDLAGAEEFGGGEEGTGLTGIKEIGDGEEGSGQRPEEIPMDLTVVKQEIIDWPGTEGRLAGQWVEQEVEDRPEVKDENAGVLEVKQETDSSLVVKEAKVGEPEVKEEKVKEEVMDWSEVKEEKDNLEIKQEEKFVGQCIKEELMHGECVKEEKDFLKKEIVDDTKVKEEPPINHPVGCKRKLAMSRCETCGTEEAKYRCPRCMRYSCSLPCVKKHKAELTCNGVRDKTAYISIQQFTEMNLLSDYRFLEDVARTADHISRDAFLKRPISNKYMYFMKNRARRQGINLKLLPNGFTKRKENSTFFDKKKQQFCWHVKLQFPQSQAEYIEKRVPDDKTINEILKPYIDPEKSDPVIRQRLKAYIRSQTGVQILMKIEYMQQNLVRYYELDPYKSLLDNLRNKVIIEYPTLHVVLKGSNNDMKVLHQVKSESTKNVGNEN
UniProt Q9NU19: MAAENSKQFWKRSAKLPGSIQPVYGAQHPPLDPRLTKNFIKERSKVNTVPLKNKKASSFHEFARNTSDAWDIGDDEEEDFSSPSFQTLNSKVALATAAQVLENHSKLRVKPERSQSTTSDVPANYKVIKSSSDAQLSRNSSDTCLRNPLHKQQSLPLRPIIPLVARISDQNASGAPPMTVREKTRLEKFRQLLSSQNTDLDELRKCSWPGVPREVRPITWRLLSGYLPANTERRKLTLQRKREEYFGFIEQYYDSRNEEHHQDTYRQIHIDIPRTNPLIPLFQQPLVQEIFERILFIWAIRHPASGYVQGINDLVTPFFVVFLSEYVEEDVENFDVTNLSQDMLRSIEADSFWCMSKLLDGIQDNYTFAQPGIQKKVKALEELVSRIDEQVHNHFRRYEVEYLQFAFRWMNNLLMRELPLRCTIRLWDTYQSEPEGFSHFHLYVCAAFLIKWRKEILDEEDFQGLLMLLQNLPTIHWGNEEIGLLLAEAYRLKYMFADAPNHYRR
UniProt Q9P1W8, whole entry: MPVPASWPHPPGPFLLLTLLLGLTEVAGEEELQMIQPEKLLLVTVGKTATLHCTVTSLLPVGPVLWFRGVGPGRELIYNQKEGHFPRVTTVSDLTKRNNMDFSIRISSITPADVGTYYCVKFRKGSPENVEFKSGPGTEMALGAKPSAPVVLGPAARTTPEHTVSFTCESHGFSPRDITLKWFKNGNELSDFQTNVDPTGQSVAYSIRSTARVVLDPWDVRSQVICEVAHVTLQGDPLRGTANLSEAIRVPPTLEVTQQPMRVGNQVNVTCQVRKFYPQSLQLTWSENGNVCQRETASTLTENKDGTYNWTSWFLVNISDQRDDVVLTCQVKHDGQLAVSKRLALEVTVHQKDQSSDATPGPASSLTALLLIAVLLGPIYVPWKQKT
UniProt Q9NXV6: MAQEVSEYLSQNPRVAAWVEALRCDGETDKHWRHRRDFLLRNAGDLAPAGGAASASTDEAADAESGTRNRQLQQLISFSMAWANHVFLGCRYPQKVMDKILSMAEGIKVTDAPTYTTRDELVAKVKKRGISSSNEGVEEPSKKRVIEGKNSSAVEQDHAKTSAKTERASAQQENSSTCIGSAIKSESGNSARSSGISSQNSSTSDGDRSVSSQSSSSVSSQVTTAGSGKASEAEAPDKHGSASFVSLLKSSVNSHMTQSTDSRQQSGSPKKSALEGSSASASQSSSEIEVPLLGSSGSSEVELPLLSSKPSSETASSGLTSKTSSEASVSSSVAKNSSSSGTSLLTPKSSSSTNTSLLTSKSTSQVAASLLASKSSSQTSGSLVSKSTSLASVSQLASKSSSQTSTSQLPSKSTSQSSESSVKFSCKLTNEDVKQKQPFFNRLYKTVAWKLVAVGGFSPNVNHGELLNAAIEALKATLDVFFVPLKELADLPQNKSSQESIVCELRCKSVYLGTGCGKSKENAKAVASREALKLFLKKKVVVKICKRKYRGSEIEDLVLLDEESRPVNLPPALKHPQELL
UniProt Q9NUQ3: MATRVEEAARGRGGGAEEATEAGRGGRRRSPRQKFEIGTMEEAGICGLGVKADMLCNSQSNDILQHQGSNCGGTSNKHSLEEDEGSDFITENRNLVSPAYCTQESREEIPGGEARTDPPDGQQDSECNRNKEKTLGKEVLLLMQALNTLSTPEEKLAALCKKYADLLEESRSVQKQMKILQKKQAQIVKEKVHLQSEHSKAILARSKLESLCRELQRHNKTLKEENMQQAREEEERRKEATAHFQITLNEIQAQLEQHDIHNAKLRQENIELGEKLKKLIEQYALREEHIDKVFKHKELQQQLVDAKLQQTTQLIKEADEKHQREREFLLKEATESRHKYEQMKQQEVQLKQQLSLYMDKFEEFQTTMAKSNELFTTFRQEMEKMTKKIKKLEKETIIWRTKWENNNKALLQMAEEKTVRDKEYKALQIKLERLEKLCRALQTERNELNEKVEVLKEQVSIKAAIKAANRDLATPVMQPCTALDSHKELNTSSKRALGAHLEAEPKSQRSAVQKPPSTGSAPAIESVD
UniProt Q9NZZ3: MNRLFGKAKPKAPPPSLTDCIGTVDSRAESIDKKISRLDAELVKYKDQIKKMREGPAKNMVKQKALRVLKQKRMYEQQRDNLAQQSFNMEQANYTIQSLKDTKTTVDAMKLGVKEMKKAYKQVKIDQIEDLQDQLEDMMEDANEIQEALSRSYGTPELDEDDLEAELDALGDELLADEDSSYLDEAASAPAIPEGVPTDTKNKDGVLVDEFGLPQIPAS

± gives the standard deviation of the averaged measurements. The entries are a selection whose mix differs from that of the whole data set. Most entries show no effect beyond the scatter of the controls.

Compound in one test: Nc1ncnc2c1ncn2[C@@H]1O[C@H](COP(=O)(O)OP(=O)(O)OP(=O)(O)O)[C@@H](O)[C@H]1O [adenosine triphosphate]
Nature of the test: NP40-soluble protein abundance relative to vehicle (solubility fold change) (ratio); higher = more soluble protein in presence of ATP. The following applies: concentration: 0.1mM. In short, it runs like this: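 Data come from three independent experiments in which Dounce-homogenised Jurkat crude lysate was treated at eight concentrations from 0.1 to 10 mM. Treatment ran 10 min at room temperature and then 3 min at 37 °C, after which 0.8% NP40 and benzonase were added for 60 min at 4 °C before ultracentrifugation. The supernatant underwent TMT labelling and LC-MS/MS, and vsn-normalised intensities were expressed as fold change against the detergent-processed vehicle in each replicate.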
Turning to UniProt Q9NPH3 and related entries, the NP40-soluble protein abundance was 0.928 ± 0.07.

UniProt Q9NRL3 and related entries: the NP40-soluble protein abundance worked out at 1 ± 0.036.

Take KLHL11 (UniProt Q9NVR0): the NP40-soluble protein abundance is 1.06 ± 0.12.

For UniProt Q9P032, the NP40-soluble protein abundance worked out at 0.921 ± 0.066.

Take UniProt Q9NVH6 and related entries: the NP40-soluble protein abundance was 1.06 ± 0.086.

For UniProt Q9NPA3, the NP40-soluble protein abundance worked out at 1.05 ± 0.14.

Turning to AATF (UniProt Q9NY61), the NP40-soluble protein abundance was 1.04 ± 0.045.

UniProt Q9P0U4 and related entries: the NP40-soluble protein abundance stood at 1.02 ± 0.029.

For SLC17A5 (UniProt Q9NRA2), the NP40-soluble protein abundance came out at 0.894 ± 0.017.

Take UniProt Q9NY93 and related entries: the NP40-soluble protein abundance is 0.986 ± 0.046.

Consider GNL3L (UniProt Q9NVN8), for which the NP40-soluble protein abundance was determined as 1 ± 0.081.

As for UniProt Q9NT62 and related entries, the NP40-soluble protein abundance was 1.02 ± 0.042.

Turning to UniProt Q9NZC3 and related entries, the NP40-soluble protein abundance was 0.993 ± 0.073.

Take VPS45 (UniProt Q9NRW7): the NP40-soluble protein abundance stood at 1.02 ± 0.1.

In the case of HPS4 (UniProt Q9NQG7), the NP40-soluble protein abundance came to 1.11 ± 0.081.

Take TBC1D13 (UniProt Q9NVG8): the NP40-soluble protein abundance is 1.08 ± 0.06.

For the target USE1 (UniProt Q9NZ43), the NP40-soluble protein abundance was determined as 0.943 ± 0.037.

As for UniProt Q9NUP9, the NP40-soluble protein abundance came to 0.948 ± 0.095.

Regarding CCDC59 (UniProt Q9P031), the NP40-soluble protein abundance came out at 0.928 ± 0.12.

For the target UniProt Q9NPA8 and related entries, the NP40-soluble protein abundance is 0.893 ± 0.12.

For the target ZNHIT6 (UniProt Q9NWK9), the NP40-soluble protein abundance stood at 0.989 ± 0.064.

For UniProt Q9NRG7-2|Q9NRG7, the NP40-soluble protein abundance came out at 0.927 ± 0.036.

Consider UniProt Q9NZD8 and related entries, for which the NP40-soluble protein abundance was 1.09 ± 0.069.

Take TBC1D22B (UniProt Q9NU19): the NP40-soluble protein abundance amounted to 1.028 ± 0.0041.

For the target UniProt Q9P1W8 and related entries, the NP40-soluble protein abundance was 1.08 ± 0.13.

As for UniProt Q9NYV4 and related entries, the NP40-soluble protein abundance came to 1.04 ± 0.023.

CDKN2AIP (UniProt Q9NXV6): the NP40-soluble protein abundance stood at 0.965 ± 0.019.

THUMPD1 (UniProt Q9NXG2): the NP40-soluble protein abundance turned out to be 0.915 ± 0.049.

As to ABCF3 (UniProt Q9NUQ8), the NP40-soluble protein abundance came to 1.09 ± 0.019.

Regarding FAM114A2 (UniProt Q9NRY5), the NP40-soluble protein abundance came to 0.961 ± 0.036.

For EXOSC5 (UniProt Q9NQT4), the NP40-soluble protein abundance worked out at 1.06 ± 0.011.

For the target UniProt Q9NUQ3, the NP40-soluble protein abundance is 1 ± 0.015.

On to CHMP5 (UniProt Q9NZZ3), for which the NP40-soluble protein abundance is 0.916 ± 0.14.

Regarding UniProt Q9NV88 and related entries, the NP40-soluble protein abundance is 1.03 ± 0.046.

For MTPAP (UniProt Q9NVV4), the NP40-soluble protein abundance is 1.06 ± 0.039.

Regarding UniProt Q9NVJ2, the NP40-soluble protein abundance is 0.944 ± 0.04.

In the case of TMEM160 (UniProt Q9NX00), the NP40-soluble protein abundance came out at 1.01 ± 0.076.

The test is the same for the next values; noted with them: concentration: 0.5mM.
Consider UniProt Q9NPH3 and related entries, for which the NP40-soluble protein abundance was 0.981 ± 0.097.

As to UniProt Q9NRL3 and related entries, the NP40-soluble protein abundance is 1.02 ± 0.027.

As for KLHL11 (UniProt Q9NVR0), the NP40-soluble protein abundance is 1.05 ± 0.12.

As for UniProt Q9P032, the NP40-soluble protein abundance came to 0.932 ± 0.077.

On to UniProt Q9NVH6 and related entries, for which the NP40-soluble protein abundance stood at 1.03 ± 0.053.

As to UniProt Q9NPA3, the NP40-soluble protein abundance is 0.909 ± 0.1.

AATF (UniProt Q9NY61): the NP40-soluble protein abundance worked out at 1.07 ± 0.11.

With UniProt Q9P0U4 and related entries, the NP40-soluble protein abundance came out at 1.01 ± 0.041.

For SLC17A5 (UniProt Q9NRA2), the NP40-soluble protein abundance was determined as 0.847 ± 0.15.

Take UniProt Q9NY93 and related entries: the NP40-soluble protein abundance came out at 1 ± 0.023.

For the target GNL3L (UniProt Q9NVN8), the NP40-soluble protein abundance is 1.06 ± 0.011.

Take UniProt Q9NT62 and related entries: the NP40-soluble protein abundance was determined as 1 ± 0.048.

Regarding UniProt Q9NZC3 and related entries, the NP40-soluble protein abundance was 0.95 ± 0.039.

Regarding VPS45 (UniProt Q9NRW7), the NP40-soluble protein abundance turned out to be 1.01 ± 0.03.

With HPS4 (UniProt Q9NQG7), the NP40-soluble protein abundance came out at 1.02 ± 0.036.

With TBC1D13 (UniProt Q9NVG8), the NP40-soluble protein abundance was found to be 1.06 ± 0.08.

In the case of USE1 (UniProt Q9NZ43), the NP40-soluble protein abundance came to 0.938 ± 0.025.

Turning to UniProt Q9NUP9, the NP40-soluble protein abundance worked out at 0.921 ± 0.08.

With CCDC59 (UniProt Q9P031), the NP40-soluble protein abundance is 0.918 ± 0.11.

As to UniProt Q9NPA8 and related entries, the NP40-soluble protein abundance turned out to be 0.963 ± 0.22.

As to ZNHIT6 (UniProt Q9NWK9), the NP40-soluble protein abundance came to 0.985 ± 0.074.

As for UniProt Q9NRG7-2|Q9NRG7, the NP40-soluble protein abundance worked out at 1.1 ± 0.07.

For UniProt Q9NZD8 and related entries, the NP40-soluble protein abundance turned out to be 1.06 ± 0.091.

Consider TBC1D22B (UniProt Q9NU19), for which the NP40-soluble protein abundance turned out to be 1.04 ± 0.015.

With UniProt Q9P1W8 and related entries, the NP40-soluble protein abundance stood at 0.951 ± 0.068.

For UniProt Q9NYV4 and related entries, the NP40-soluble protein abundance came to 1.23 ± 0.033.

On to CDKN2AIP (UniProt Q9NXV6), for which the NP40-soluble protein abundance amounted to 0.969 ± 0.025.

For THUMPD1 (UniProt Q9NXG2), the NP40-soluble protein abundance is 0.911 ± 0.091.

As to ABCF3 (UniProt Q9NUQ8), the NP40-soluble protein abundance turned out to be 1.11 ± 0.016.

For FAM114A2 (UniProt Q9NRY5), the NP40-soluble protein abundance worked out at 0.976 ± 0.014.

For EXOSC5 (UniProt Q9NQT4), the NP40-soluble protein abundance is 1.04 ± 0.063.

Take UniProt Q9NUQ3: the NP40-soluble protein abundance turned out to be 1.02 ± 0.051.

As for CHMP5 (UniProt Q9NZZ3), the NP40-soluble protein abundance was determined as 0.89 ± 0.16.

In the case of UniProt Q9NV88 and related entries, the NP40-soluble protein abundance stood at 1.07 ± 0.038.

As for MTPAP (UniProt Q9NVV4), the NP40-soluble protein abundance amounted to 1.1 ± 0.065.

Take UniProt Q9NVJ2: the NP40-soluble protein abundance is 1.05 ± 0.097.

With TMEM160 (UniProt Q9NX00), the NP40-soluble protein abundance is 1.07 ± 0.097.
